Data on two substances can be found in publication doi:10.1101/2024.12.17.628889.

Sequences of proteins named here, by UniProt entry; tags and fusion partners are left off. A change or cut given only in a name is not applied to a line headed by its entry. Residues count along the entry.
UniProt O75460, residues 19-977: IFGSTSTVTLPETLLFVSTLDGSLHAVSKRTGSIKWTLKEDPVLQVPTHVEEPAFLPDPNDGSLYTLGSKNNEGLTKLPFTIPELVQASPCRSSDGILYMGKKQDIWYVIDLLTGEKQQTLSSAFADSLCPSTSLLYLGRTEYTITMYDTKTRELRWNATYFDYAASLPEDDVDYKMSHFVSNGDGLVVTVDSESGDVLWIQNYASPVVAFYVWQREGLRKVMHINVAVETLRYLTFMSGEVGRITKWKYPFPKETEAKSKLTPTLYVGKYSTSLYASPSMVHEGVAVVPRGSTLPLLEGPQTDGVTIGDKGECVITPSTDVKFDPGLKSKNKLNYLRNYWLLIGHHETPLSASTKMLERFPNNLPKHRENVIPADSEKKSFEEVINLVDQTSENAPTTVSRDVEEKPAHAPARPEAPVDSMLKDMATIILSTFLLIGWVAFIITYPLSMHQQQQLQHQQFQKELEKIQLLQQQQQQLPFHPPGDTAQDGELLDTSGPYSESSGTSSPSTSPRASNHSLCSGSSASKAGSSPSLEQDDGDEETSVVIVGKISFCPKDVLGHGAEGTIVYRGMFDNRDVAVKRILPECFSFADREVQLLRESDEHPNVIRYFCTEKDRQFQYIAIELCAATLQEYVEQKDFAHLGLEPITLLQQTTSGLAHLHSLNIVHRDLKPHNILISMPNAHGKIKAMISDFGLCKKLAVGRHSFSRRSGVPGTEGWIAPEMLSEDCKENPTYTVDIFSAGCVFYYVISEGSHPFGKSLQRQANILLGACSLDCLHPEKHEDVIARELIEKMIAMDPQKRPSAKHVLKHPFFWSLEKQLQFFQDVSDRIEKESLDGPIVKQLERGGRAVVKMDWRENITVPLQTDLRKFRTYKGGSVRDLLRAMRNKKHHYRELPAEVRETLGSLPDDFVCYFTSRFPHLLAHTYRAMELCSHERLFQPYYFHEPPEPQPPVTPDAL
UniProt Q49AH0: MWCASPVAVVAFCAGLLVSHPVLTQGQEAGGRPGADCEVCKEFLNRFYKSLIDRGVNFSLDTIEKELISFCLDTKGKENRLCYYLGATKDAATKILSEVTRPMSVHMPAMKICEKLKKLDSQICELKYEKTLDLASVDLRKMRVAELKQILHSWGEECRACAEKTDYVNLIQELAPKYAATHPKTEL

Results are given in words; binding and its absence hold for the method and conditions named. Binding seen in cells or lysates may run through a third protein. Binding calls can cover weak binding; strength is not graded here.

The target of the test is IRE1α BiFC construct (pEZY BiFC IRE1a-NV(CV)) (UniProt O75460). Nature of the test: split reporter.

With “C-terminal domain of CDNF (C-CDNF) BiFC construct (pre-NV-C-CDNF) (from UniProt Q49AH0) (domain or fragment)”, the binding result is given as “binds”. As for “N-terminal domain of CDNF (N-CDNF) BiFC construct (pre-NV-N-CDNF) (from UniProt Q49AH0) (domain or fragment)”, the entry is “binds”.
